# Results published in PubChem BioAssay AID504467 (National Center for Advancing Translational Sciences (NCATS), 2011).
# About 7,700 (2.3%) of roughly 330,000 compounds were called active. Inconclusive means that the source gave no clear call. Such entries were picked first, then a sample of the others. Calls follow the shape of the dose curve; as a rule, active = well fitted inhibition curve with a large enough effect; inconclusive = small, poorly fitted or top-dose-only effect, or effect the other way; inactive = flat fitted curve, though single readings scatter. Potencies beside an inconclusive call are fits to weak or partial responses and may not hold up.
# Experiment: qHTS screen for small molecules that inhibit ELG1-dependent DNA repair in human embryonic kidney (HEK293T) cells expressing luciferase-tagged ELG1; also: nearly all actives have a fitted effect of over 55% in size
# Conditions: HEK293T ELG1-luciferase reporter, luminescence, 16 h, DNA damage induced by 5-fluorouridine; series mostly up to 46.1 µM
# Procedure, shortened: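 Reporter activity after DNA damage by 5-fluorouridine is monitored. Compound-treated cells incubate 16 hr at 37 °C, then ONE-Glo is added for 30 min before luminescence reading.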
# Potency is read from the fitted curve at half-maximal effect.
row,SMILES,Potency
1,CC(=O)c1cccc(Nc2nc(-c3sc(C)nc3C)cs2)c1,active: 16.4 µM
2,ClCC1=Nc2cccc3cccc(c23)N1,"inconclusive: 16.4 µM [inhibitor, single point]"
3,Cc1c(Cc2ccccc2)sc(NC(=O)/C=C/c2cccc3ccccc23)c1C(N)=O,"inconclusive: 5.8 µM [inhibitor, partial curve, poor fit]"
4,CC(C)c1ccc(N=C(N)N=C(N)N)cc1,active: 20.6 µM
5,CCOC(=O)c1c(C)c(C(=O)NCCc2ccccc2)c(C)n1C,"inconclusive: 18.3 µM [activator, partial curve]"
6,O=c1oc(-c2cccs2)nc2ccc(Br)cc12,"inconclusive: 6.51 µM [activator, single point]"
7,Cc1ccc(-c2nc3cnccn3c2Nc2c(C)cccc2C)o1,"inconclusive: 20.6 µM [inhibitor, single point]"
8,CCCCCC(=O)N1CCCC(c2nc(-c3ccc(OC)cc3)no2)C1 (centres undefined),"inconclusive: 29.1 µM [inhibitor, single point]"
9,Cc1ccc(C(=O)N[C@H](C(=O)Nc2ccc(N3CCOCC3)cc2)C(C)C)cc1,inactive
10,C#CC(=O)N(c1cccc(OC)c1)C(C(=O)NC1CCCC1)c1cccs1 (centres undefined),active: 20.6 µM
11,Cc1cccc(OCCSc2nc(N)cc(N)n2)c1,"inconclusive: 6.51 µM [activator, single point]"
12,COC(=O)C1=C(C)Nc2nc(-c3ccccc3)nn2C1c1ccc(C)o1 (centres undefined),"inconclusive: 9.2 µM [activator, partial curve, poor fit]"
13,O=C(Cc1ccccc1)OCC(=O)c1cccc([N+](=O)[O-])c1,"inconclusive: 25.9 µM [activator, single point]"
14,Cc1ccc(C(=O)N2CCC(C(=O)NCc3ccco3)CC2)cc1,inactive
15,Cc1ccc(S(=O)(=O)Nc2ccc(NC(=O)c3cccnc3)cc2)cc1,"inconclusive: 8.2 µM [inhibitor, partial curve]"
16,CCCN(Cc1ccccc1)C(=S)Nc1ccc(C(C)=O)cc1,inactive
17,CCN(CC)S(=O)(=O)c1ccc(OC)c(NC(=O)c2cccc(C)c2[N+](=O)[O-])c1,"inconclusive: 16.4 µM [inhibitor, partial curve]"
18,O=C(NC1CCCCCC1)c1ccc(Br)o1,"inconclusive: 29.1 µM [activator, single point]"
19,CCOC(=O)N1CCN(C(=O)Cn2ccc3c(OC)cccc3c2=O)CC1,inactive
20,O=c1oc(-c2ccc([N+](=O)[O-])cc2)nc2ccc(O)cc12,inactive
21,COc1ccccc1C1c2[nH]c3ccccc3c2CCN1Cc1cnc(C)s1 (centres undefined),"inconclusive: 29.1 µM [inhibitor, single point]"
22,COc1cc(/C=N/Nc2ccc(F)cc2F)cc(OC)c1O,"inconclusive: 25.9 µM [inhibitor, partial curve]"

row,SMILES,Potency
1,CCc1nc(SCC(=O)Nc2cccc(C(F)(F)F)c2)c2c(=O)n(C)c(=O)n(C)c2n1,"inconclusive: 14.6 µM [inhibitor, partial curve]"
2,Cc1ccc(C(=O)Nc2ccc(N3CCN(C)CC3)nc2)cc1,"inconclusive: 10.3 µM [activator, partial curve]"
3,COc1ccc(N2CCN(C(=O)COC(=O)CNC(=O)c3ccccc3)CC2)cc1,inactive
4,O=C(CCNC(=O)c1ccccc1Cl)Nc1cccc(S(=O)(=O)N2CCCCC2)c1,"inconclusive: 9.2 µM [inhibitor, partial curve]"
5,Nc1c(Cl)cc(C2=NCCn3nc4cc(C(F)(F)F)ccc4c32)cc1Cl,"inconclusive: 35.5 µM [inhibitor, single point]"
6,COc1ccc(CCC(=O)Nc2ccc(S(=O)(=O)N3CCOCC3)cc2)cc1,inactive
7,COC(=O)c1ccc(CNC(=O)C2CCC(=O)N(CCc3ccccc3)C2)cc1 (centres undefined),inactive
8,CC(OC(=O)c1ccc(F)cc1)C(=O)Nc1nc(-c2cccc([N+](=O)[O-])c2)cs1 (centres undefined),"inconclusive: 29.1 µM [inhibitor, single point]"
9,Cc1ccc(-c2cc(C(F)F)n3ncc(C(=O)Nc4cn(C)nc4C)c3n2)cc1,"inconclusive: 0.92 µM [inhibitor, full curve, poor fit]"
10,Cc1[nH]c2ccc(F)cc2c1CCN(Cc1cccnc1)C(=S)Nc1cccc(F)c1,"inconclusive: 29.1 µM [inhibitor, single point]"
11,CCCCn1c(-c2cccc(F)c2)nc2c1c(=O)[nH]c(=O)n2CC(C)C,inactive
12,Cc1ccc2cc(C#N)c(NCCNC(=S)NCCCN3CCOCC3)nc2c1,"inconclusive: 16.4 µM [inhibitor, partial curve]"
13,CCN(CC(=O)N1CCN(Cc2ccccc2)CC1)S(=O)(=O)c1ccccc1,inactive
14,CCn1c(NCc2ccc(OC)cc2)nc2ccccc21,"inconclusive: 23.1 µM [activator, single point]"
15,COc1cc(Cl)c(CNC[C@H]2O[C@@H](n3cnc4c(N)ncnc43)[C@H](O)[C@@H]2O)c(Cl)c1O,"inconclusive: 23.1 µM [activator, single point]"
16,CC(C)C(c1nnnn1Cc1ccco1)N1CCN(c2nc3ccccc3s2)CC1 (centres undefined),"inconclusive: 25.9 µM [inhibitor, single point]"
17,CCOC(=O)c1ccc(CNC(=O)C2CCC(=O)N(Cc3cccc(OC)c3)C2)o1 (centres undefined),inactive
18,COc1cccc(NC(=O)C2CCC2)c1,"inconclusive: 35.5 µM [activator, single point]"
19,CC(C)(C)n1ncc2c(=O)n(CC(=O)NCc3ccccc3)cnc21,"inconclusive: 1.64 µM [activator, partial curve]"
20,O=C(Cn1nnc(-c2ccc(Cl)cc2)n1)NC1CCN(Cc2ccccc2)CC1,"inconclusive: 18.4 µM [inhibitor, partial curve, poor fit]"
21,Cc1ccc(CC(=O)N2CCOCC2)cc1,"inconclusive: 18.4 µM [activator, partial curve, poor fit]"
22,O=C(CSC1=NCCS1)N1CCN(c2ccccc2)CC1,"inconclusive: 5.8 µM [inhibitor, full curve]"

# Two records picked at random from those above, as already listed:
row,SMILES,Potency
19,CC(C)(C)n1ncc2c(=O)n(CC(=O)NCc3ccccc3)cnc21,"inconclusive: 1.64 µM [activator, partial curve]"
14,CCn1c(NCc2ccc(OC)cc2)nc2ccccc21,"inconclusive: 23.1 µM [activator, single point]"
